The other results are listed elsewhere or left out. The main result of the screen is listed elsewhere. These columns were measured beside it and carry no call. Most of these compounds were active or inconclusive in the main read-out, so they are no random draw. Words in brackets tell the shape of the fitted curve; partial curves, single points and poor fits give uncertain potencies.
Assay: qHTS Assay for Lipid Storage Modulators in Drosophila S3 Cells;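 on cell number change: cells counted by Cell Tracker Red CMTPX staining in the red channel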
Settings: BODIPY lipid droplet fluorescence, 18-24 h; for cell number change: measured here: cell count max response, cells fed with added oleic acid
Method in brief: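 Drosophila S3 cells loaded with oleic acid (400 uM, as added) and compounds at several concentrations; lipid droplets imaged by 488-nm laser-scanning cytometry, 500–530 nm intensity and object ratio to cell channel. Percent activity normalized to 20 uM Triacsin C.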

[1] = measured here: lipid fluorescence (Fed channel) AC50, cells fed with added oleic acid
[2] = measured here: cell number channel AC50, cells fed with added oleic acid

SMILES | AC50 [1] | cell number change | AC50 [2]
Oc1cccnc1SCc1ccccc1 | 0.116 µM [rising, full curve, poor fit] |  | 
O=C(O)Cc1ccc2oc(-c3cccnc3)nc2c1 | 6.51 µM [rising, single point] | 17.4% | 2.59 µM [rising, single point]
O=C(COc1ccc(S(=O)(=O)N2CCc3ccccc32)cc1Cl)NCc1ccccn1 | 1.3 µM [rising, partial curve] | -43.7% | 25.9 µM [falling, single point]
O=C(O)c1cnn2c1C(=O)N(Cc1cccs1)CC2 | 5.17 µM [falling, full curve] | -33.5% | 5.8 µM [falling, full curve, poor fit]
Cc1ccc(SCc2cn3cccnc3n2)cc1 | 32.6 µM [rising, single point] | -12.6% | 
COc1ccc(CNC(=O)[C@H](C)N2C(=O)N3CCc4c([nH]c5ccc(OC)cc45)[C@@]3(C)C2=O)cc1 |  | 8.62% | 
COc1cccc(N2CC(C(=O)Nc3nnc(SCC(=O)Nc4cc(C)on4)s3)CC2=O)c1 (centres undefined) |  | -21.6% | 
COc1cccc(C(=O)N(CN2CCCC2=O)c2ccccc2OC)c1 |  | 13.7% | 
Cc1sc2ncnc(N3CCC(C(=O)NNC(=O)COc4cccc(C(F)(F)F)c4)CC3)c2c1C |  | 75% | 23.1 µM [rising, single point]
O=C(Nc1ccccc1)c1cccc(N2CCCC2=O)c1 | 20.6 µM [rising, single point] | -23% | 
COc1ccccc1CNC(=O)COC(=O)c1ccc([N+](=O)[O-])o1 | 0.58 µM [falling, single point] |  | 
O=C(NCc1ccccc1)c1ccc(NC(=O)C2CCCO2)cc1 (centres undefined) | 1.64 µM [falling, partial curve] |  | 
COc1ccccc1OCCNC(=O)c1ccc(C)o1 | 4.61 µM [rising, single point] | 10.2% | 
COCC(=O)N1CCC(Oc2ccc(C(=O)N3C[C@@H](C)O[C@@H](C)C3)cc2)CC1 |  | -21.5% | 0.731 µM [falling, full curve]
CCn1ncc(C2=NOC(C(=O)NCCc3ccccc3)C2)c1C (centres undefined) |  | 56.1% | 23.1 µM [rising, partial curve]
CCCn1c(Cc2ccccc2)nnc1SC(C)C(=O)NC1CC1 (centres undefined) | 29.1 µM [rising, partial curve, poor fit] | 14.6% | 0.58 µM [falling, single point]
COc1cccc(NC(=O)NCc2ccc(F)cc2)c1 | 6.51 µM [rising, single point] |  | 6.51 µM [rising, single point]
CCSc1nsc(SCC)c1C(N)=O | 0.103 µM [falling, full curve, poor fit] | -5.75% | 
COc1ccc(NC(=O)CC(NC(C)c2ccccc2)C(=O)O)cc1 (centres undefined) | 29.1 µM [rising, single point] | -16.4% | 
Cc1cc(C(=O)COC(=O)C2=NNC(=O)CC2)c(C)n1CCc1ccccc1 | 29.1 µM [falling, single point] | -66.5% | 0.116 µM [falling, full curve, poor fit]

Shown tab-delimited: entries from further up
SMILES	AC50 [1]	cell number change	AC50 [2]
Cc1ccc(SCc2cn3cccnc3n2)cc1	32.6 µM [rising, single point]	-12.6%	
COc1ccc(CNC(=O)[C@H](C)N2C(=O)N3CCc4c([nH]c5ccc(OC)cc45)[C@@]3(C)C2=O)cc1		8.62%	
COc1cccc(C(=O)N(CN2CCCC2=O)c2ccccc2OC)c1		13.7%	
COc1cccc(NC(=O)NCc2ccc(F)cc2)c1	6.51 µM [rising, single point]		6.51 µM [rising, single point]

Next compounds follow:

SMILES | AC50 [1] | cell number change | AC50 [2]
Cc1ccc(NC(=O)c2cc(C)no2)cc1 |  | 19.8% | 
CCOC(=O)NC(Nc1ccc(C)cn1)(C(F)(F)F)C(F)(F)F | 20.6 µM [falling, partial curve] | -46.7% | 11.6 µM [falling, partial curve, poor fit]
COc1ccc(N2CCN(C(=O)CN(c3ccc(Br)cc3)S(C)(=O)=O)CC2)cc1 | 0.92 µM [rising, full curve, poor fit] | 2.33% | 
CCN(Cc1ccccc1)C(=O)c1oc2ccc(S(=O)(=O)N3CCOCC3)cc2c1C | 2.31 µM [falling, partial curve] | -31.5% | 13 µM [falling, partial curve, poor fit]
COc1ccc(CCn2nnnc2C(CC(C)C)N2CCC(C(N)=O)CC2)cc1OC (centres undefined) |  | -12.9% | 
O=C(OCc1ccccc1Cl)c1cccnc1Cl | 0.731 µM [falling, single point] | 20.1% | 
Clc1ccc2nc(-c3ccc(Cl)nc3)[nH]c2c1 | 18.4 µM [falling, single point] | -45.7% | 29.1 µM [falling, single point]
O=C(Nc1ccccc1O)C(c1ccccc1)c1ccccc1 | 16.4 µM [falling, single point] | -52.2% | 29.1 µM [falling, single point]
COc1ccc(OC)c(NC(=O)NC2CCCCCCC2)c1 | 2.31 µM [rising, full curve] | -2.6% | 
O=C(OCC(=O)N1c2ccccc2Sc2ccccc21)c1ccc[n+]([O-])c1 |  | -21.4% | 0.00461 µM [falling, full curve, poor fit]
COc1ccc(Oc2cc(C)c3ccccc3n2)cc1 | 5.8 µM [rising, partial curve] | -41.1% | 
COc1ccc(CCC2(C)NC(=O)NC2=O)cc1 (centres undefined) | 0.517 µM [falling, single point] | -2.58% | 
O=C(c1cccc(Cl)c1)N1CCN(S(=O)(=O)c2ccc(Cl)s2)CC1 | 0.0103 µM [rising, full curve, poor fit] | -1.74% | 
O=C(Nc1c(C(=O)Nc2cccc3ccccc23)cnn1-c1ccccc1)c1ccco1 | 14.6 µM [falling, single point] |  | 
Cc1cc(-c2n[nH]c(=S)n2/N=C/c2cccs2)n[nH]1 | 0.0517 µM [rising, full curve, poor fit] | 15.5% | 
CC1CCN(S(=O)(=O)c2ccc(NC(=O)[C@@H]3CCCC[C@@H]3C(=O)O)cc2)CC1 |  | 1.28% | 
CC(C)C(C)(C#N)NC(=O)CSc1nnc(-c2ccccc2)o1 (centres undefined) | 0.00411 µM [rising, full curve, poor fit] | 25.5% | 
Cc1ccnc(NC(=O)Nc2ccc3c(c2)N(C)C(=O)CS3)c1 | 0.58 µM [rising, single point] | -0.11% | 
Cn1c(=O)c2c(nc(Sc3ncccn3)n2Cc2ccccc2Cl)n(C)c1=O | 29.1 µM [falling, single point] | -42.1% | 
O=C(c1ccco1)N1CCC(c2nc(-c3ccccc3Cl)no2)CC1 |  | -1.65% | 

SMILES | AC50 [1] | cell number change | AC50 [2]
COc1ccc(Br)c(C(=O)N2CCN(S(=O)(=O)/C=C/c3ccccc3)CC2)c1 |  | 13.8% | 
CC(C)CN(CC(C)C)C(=O)c1cccc(S(=O)(=O)N2CCc3ccccc32)c1 | 29.1 µM [rising, single point] |  | 
CN1C(=O)c2ccc(NC(=O)c3c(C(=O)O)cccc3[N+](=O)[O-])cc2C1=O |  | 4.96% | 
CN(C)c1ccc(-c2nnn(CC(=O)Nc3ccccc3N3CCOCC3)n2)cc1 | 3.66 µM [rising, full curve, poor fit] | 19.3% | 0.517 µM [rising, full curve, poor fit]
CCOC(=O)NC(C(Cl)(Cl)Cl)S(=O)(=O)c1ccccc1 (centres undefined) | 1.3 µM [rising, partial curve] | -6.55% | 
Cc1ccc(/C=N/Nc2ccc3ccccc3n2)o1 |  | -74.2% | 7.31 µM [falling, partial curve]
O=C(NCCCN1CCOCC1)NC1CCCCC1 | 1.03 µM [falling, full curve] | -6.36% | 
COc1ccc(/C=N/NC(=O)CNC(=O)c2ccc(S(=O)(=O)N3CCOCC3)cc2)c(OC)c1 |  | 11% | 
Cc1cc(C)c(C)c(N=Nc2nc3ccccc3n2C)c1C | 29.1 µM [falling, single point] | -50.8% | 29.1 µM [falling, single point]
COc1ccc(C(=O)ON=C2c3ccccc3-c3ccccc32)cc1OC | 3.66 µM [rising, partial curve] | 49.9% | 6.51 µM [rising, single point]
Cc1ccc(C(=O)NCCSC(C)(C)C)cc1 | 18.4 µM [rising, single point] | 10.6% | 
O=C(Nc1cccc(C(F)(F)F)c1)C1CCN(S(=O)(=O)c2cccnc2)CC1 |  | -0.382% | 
COc1ccc(-c2cc(=O)oc3cc(OCC(=O)N(C)C4CCS(=O)(=O)C4)ccc23)cc1 (centres undefined) | 1.03 µM [rising, full curve] | 27.1% | 
COCC(C)NC(=O)c1ccccc1[N+](=O)[O-] (centres undefined) | 0.731 µM [falling, full curve] | 9.89% | 1.46 µM [rising, partial curve]
O=C(CN1C(=O)NC(Cc2c[nH]c3ccccc23)C1=O)Nc1cccc(S(=O)(=O)N2CCCC2)c1 (centres undefined) | 0.112 µM [falling, full curve] | -35.5% | 
CN(C)c1nc(N)nc(-c2ccco2)n1 | 6.51 µM [falling, single point] | 10.6% | 
COc1ccc2sc(-c3ccccc3OC)c(-c3ccc(OC)nc3)c2c1 | 29.1 µM [rising, single point] | -36.7% | 29.1 µM [falling, single point]
Clc1ccc2nc(CN3CCCc4ccccc43)cn2c1 | 16.4 µM [rising, partial curve] | 109% | 14.6 µM [rising, partial curve]
CCOC(=O)C1=C(C)NC(=O)NC1c1ccccc1Cl (centres undefined) | 13 µM [rising, single point] | 11.3% | 
CSc1ccc(CNC(=O)C(C)n2nc(C)c3c(C)n(-c4ccccc4)nc3c2=O)cc1 (centres undefined) | 0.58 µM [rising, single point] | -5.31% | 

Reference: PubChem BioAssay AID2685 (National Center for Advancing Translational Sciences (NCATS), 2010)
